Experimental data: paper PMC4585558
These are yes or no findings as the source states them, for the method shown. Binding seen in cells or lysates may run through a third protein. Some binding calls cover weakened binding; strength is not graded here.

Sequences of proteins named here, by UniProt entry; tags and fusion partners are left off.
UniProt Q16539: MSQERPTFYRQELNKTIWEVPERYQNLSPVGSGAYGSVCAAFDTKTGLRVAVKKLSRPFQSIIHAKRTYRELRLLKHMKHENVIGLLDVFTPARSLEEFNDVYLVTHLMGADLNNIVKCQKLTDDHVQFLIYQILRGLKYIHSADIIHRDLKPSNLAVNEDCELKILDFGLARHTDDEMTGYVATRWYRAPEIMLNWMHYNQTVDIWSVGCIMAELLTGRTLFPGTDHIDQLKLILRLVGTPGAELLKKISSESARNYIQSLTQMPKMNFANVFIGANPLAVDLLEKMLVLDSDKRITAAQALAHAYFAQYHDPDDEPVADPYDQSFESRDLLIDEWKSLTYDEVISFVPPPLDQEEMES

Target: p38α (expressed in 293T cells for Fig. 4C) (UniProt Q16539)
Test: co-IP; 293T cells co-transfected with expression vectors; lysates (20 mM Tris-Cl pH 7.6, 120 mM NaCl, 10% glycerol, 2 mM EDTA, 1% Triton X-100) immunoprecipitated with anti-FLAG Ab and protein A-Sepharose at 4 °C for 4 hours; IB

B1: MKK3b (expressed in 293T cells for Fig. 4C) (enzyme, UniProt P46734 1-347)
chain: MESPASSQPASMPQSKGKSKRKKDLRISCMSKPPAPNPTPPRNLDSRTFITIGDRNFEVEADDLVTISELGRGAYGVVEKVRHAQSGTIMAVKRIRATVNSQEQKRLLMDLDINMRTVDCFYTVTFYGALFREGDVWICMELMDTSLDKFYRKVLDKNMTIPEDILGEIAVSIVRALEHLHSKLSVIHRDVKPSNVLINKEGHVKMCDFGISGYLVDSVAKTMDAGCKPYMAPERINPELNQKGYNVKSDVWSLGITMIEMAILRFPYESWGTPFQQLKQVVEEPSPQLPADRFSPEFVDFTAQCLRKNPAERMSYLELMEHPFFTLHKTKKTDIAAFVKEILGEDS
binding: binds
